According to patent US20110124745A1, “Switchable Anionic Surfactants and Methods of Making and Using Same” (priority 2009, published 2011):

Assays:
[1] = Oil in first decant solution in the absence of CO2 (surfactant ON)
[2] = Oil in first decant solution after exposure to CO2 (surfactant OFF); oil recapture
[3] = 50° C. Washing, 0.1 wt % surfactant solution
[4] = 50° C. Washing, 0.5 wt % surfactant solution
[5] = Room Temperature Washing, 0.5 wt % surfactant solution

| Compound | Amount of oil present in 2 mL sample of 1st decant in the absence of CO2 [1, 3] [mg] | Amount of oil present in 2 mL sample of 1st decant in the absence of CO2 [1, 4] [mg] | Amount of oil present in 2 mL sample of 1st decant in the absence of CO2 [1, 5] [mg] | Amount of oil present in 2 mL sample of 1st decant after exposure to CO2 and time for separation [2, 3] [mg] | Amount of oil present in 2 mL sample of 1st decant after exposure to CO2 and time for separation [2, 4] [mg] | Amount of oil present in 2 mL sample of 1st decant after exposure to CO2 and time for separation [2, 5] [mg] |
| --- | --- | --- | --- | --- | --- | --- |
| CCCCCCCCOC(=O)c1ccc(O)c([N+](=O)[O-])c1.[Na] [Sodium octyl 4-hydroxy-3-nitrobenzoate] | 13 | 8.8 to 9.5 | 5.2 | 0.9 | 0.5 to 0.6 | 1.0 |
| Triton X-100 | – | 22.8 | 11.5 | – | – | – |
| CCCCCCCCCCCCOS(=O)(=O)[O-].[Na+] [Sodium Dodecyl Sulfate (SDS), Sodium Dodecyl Sulfate] | – | 19.7 | 3.4 | – | – | – |
